What all share (test): FRET or BRET; single-cell FRET in intact HEK293T cells co-transfected with TPα receptor, Gβ1 and Gγ2; donor mTurquoise2 (or CFP) on the Gα subunit, acceptor YFP on the RhoGEF; F535/F480 emission ratio on superfusion with the agonist U-46619 and after its washout (AUC of decay over the 10 min washout); room temperature, buffer pH 7.3
For orientation: Bioluminescence resonance energy transfer reports proximity on the nanometre scale.

The chains behind the UniProt entries cited, without tags or fusion partners.
UniProt Q03113: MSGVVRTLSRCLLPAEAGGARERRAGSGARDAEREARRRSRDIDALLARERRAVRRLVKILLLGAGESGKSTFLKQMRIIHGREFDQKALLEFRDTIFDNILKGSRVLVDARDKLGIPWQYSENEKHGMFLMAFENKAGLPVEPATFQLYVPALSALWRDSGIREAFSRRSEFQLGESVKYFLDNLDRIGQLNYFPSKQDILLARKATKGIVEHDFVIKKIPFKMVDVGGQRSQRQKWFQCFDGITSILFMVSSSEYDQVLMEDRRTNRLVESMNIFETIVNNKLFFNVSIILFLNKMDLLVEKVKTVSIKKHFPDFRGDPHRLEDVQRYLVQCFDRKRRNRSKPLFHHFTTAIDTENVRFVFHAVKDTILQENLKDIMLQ
UniProt P10824: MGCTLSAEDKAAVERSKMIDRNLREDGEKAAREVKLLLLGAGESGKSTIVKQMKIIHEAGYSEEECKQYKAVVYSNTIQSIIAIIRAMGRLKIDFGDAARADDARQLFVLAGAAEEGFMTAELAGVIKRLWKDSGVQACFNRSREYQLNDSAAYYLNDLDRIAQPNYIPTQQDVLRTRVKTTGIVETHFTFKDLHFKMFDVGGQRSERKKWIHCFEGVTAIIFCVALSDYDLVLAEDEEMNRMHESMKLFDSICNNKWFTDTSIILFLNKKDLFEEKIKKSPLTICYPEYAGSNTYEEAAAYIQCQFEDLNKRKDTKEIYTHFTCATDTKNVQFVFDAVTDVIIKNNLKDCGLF
UniProt O15085: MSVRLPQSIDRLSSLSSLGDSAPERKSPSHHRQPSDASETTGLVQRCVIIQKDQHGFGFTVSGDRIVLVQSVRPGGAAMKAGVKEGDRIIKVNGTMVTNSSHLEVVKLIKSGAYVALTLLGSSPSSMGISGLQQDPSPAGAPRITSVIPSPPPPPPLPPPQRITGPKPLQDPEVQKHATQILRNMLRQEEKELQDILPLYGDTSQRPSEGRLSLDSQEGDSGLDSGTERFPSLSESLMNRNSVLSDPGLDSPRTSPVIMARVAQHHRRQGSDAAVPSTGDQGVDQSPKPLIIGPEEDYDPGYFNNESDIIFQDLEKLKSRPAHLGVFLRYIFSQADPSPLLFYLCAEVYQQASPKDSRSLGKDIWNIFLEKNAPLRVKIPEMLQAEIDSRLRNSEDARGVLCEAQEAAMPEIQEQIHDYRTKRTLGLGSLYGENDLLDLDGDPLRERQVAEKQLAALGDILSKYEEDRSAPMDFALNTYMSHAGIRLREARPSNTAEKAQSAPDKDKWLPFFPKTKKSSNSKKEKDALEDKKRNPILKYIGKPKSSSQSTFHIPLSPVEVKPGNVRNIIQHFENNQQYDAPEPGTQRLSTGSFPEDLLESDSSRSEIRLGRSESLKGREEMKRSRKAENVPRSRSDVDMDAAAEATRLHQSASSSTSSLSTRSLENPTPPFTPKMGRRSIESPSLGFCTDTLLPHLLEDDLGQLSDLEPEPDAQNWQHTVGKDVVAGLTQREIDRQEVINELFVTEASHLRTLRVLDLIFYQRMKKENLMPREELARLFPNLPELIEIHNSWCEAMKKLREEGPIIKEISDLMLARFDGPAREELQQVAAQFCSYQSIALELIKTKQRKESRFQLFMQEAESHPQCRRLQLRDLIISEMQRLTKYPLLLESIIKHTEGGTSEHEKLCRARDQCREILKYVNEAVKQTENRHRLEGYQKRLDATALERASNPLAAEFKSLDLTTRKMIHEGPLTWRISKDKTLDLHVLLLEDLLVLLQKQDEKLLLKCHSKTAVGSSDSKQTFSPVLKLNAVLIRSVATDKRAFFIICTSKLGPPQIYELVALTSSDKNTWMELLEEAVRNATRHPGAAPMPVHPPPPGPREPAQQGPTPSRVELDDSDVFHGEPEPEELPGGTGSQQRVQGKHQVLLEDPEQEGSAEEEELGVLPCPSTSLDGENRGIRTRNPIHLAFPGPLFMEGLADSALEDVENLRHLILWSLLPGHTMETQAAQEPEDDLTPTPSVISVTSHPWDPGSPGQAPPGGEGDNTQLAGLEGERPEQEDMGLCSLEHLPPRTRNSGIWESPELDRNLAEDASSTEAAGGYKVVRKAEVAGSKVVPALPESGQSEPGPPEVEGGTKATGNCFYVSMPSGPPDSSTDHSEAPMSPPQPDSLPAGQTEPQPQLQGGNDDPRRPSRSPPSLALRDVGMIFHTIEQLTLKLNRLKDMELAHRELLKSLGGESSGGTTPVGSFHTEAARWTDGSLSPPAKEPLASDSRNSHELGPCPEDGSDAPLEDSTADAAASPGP

Assay [1] has as its target T1, Gα13(135) (mTurquoise2 between amino acids 135 and 136) (mouse) (UniProt P27601).
T1 sequence: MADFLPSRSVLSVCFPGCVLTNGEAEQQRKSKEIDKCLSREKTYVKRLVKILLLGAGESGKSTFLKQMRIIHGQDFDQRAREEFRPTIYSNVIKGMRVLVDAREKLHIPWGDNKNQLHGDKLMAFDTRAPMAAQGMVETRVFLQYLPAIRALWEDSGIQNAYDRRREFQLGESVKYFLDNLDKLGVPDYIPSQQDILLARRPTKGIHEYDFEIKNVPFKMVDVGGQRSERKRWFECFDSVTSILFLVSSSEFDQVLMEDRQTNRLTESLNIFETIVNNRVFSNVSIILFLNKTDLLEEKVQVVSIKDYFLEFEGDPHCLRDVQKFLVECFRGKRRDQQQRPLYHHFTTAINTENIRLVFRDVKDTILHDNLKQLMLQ

The next assay has as its target Gα12-CFP (UniProt Q03113).
Assay [2] has as its target T2, Gα13-mTurq2 (mTurquoise2 between amino acids 127 and 128) (mouse) (UniProt P27601).
T2 sequence: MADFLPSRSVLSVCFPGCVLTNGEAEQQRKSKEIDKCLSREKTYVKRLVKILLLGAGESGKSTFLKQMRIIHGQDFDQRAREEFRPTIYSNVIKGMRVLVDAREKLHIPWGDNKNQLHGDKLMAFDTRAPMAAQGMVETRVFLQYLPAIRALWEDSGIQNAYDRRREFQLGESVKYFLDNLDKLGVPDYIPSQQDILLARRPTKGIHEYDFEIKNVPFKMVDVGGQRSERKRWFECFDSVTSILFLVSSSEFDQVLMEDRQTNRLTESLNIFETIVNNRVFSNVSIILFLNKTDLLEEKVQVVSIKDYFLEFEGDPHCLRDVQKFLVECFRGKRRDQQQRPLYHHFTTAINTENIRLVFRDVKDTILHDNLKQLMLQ

The target of another assay is Gαi-mTurq2 (rat) (UniProt P10824).
In the next assay the target is T3, Gα13(135)R128A (mouse, UniProt P27601 1-377, R128A).
T3 construct: Gα13, mouse; also called Gα13-R128A; source: HEK293T, transfected, in intact cells
T3 sequence (looked up): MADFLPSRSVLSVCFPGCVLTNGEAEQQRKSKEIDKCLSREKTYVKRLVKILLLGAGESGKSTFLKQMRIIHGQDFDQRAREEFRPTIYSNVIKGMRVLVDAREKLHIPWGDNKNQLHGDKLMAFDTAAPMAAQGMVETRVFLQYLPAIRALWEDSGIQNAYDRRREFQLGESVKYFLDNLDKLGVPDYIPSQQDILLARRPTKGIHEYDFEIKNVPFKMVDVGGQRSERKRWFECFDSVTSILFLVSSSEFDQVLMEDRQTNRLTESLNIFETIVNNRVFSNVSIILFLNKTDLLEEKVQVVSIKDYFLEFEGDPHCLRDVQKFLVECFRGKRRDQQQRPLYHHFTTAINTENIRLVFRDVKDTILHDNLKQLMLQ

Results are given in words; binding and its absence hold for the method and conditions named. Binding seen in cells or lysates may run through a third protein. Some binding calls cover weakened binding; strength is not graded here.

As to LARG-G359E (from UniProt Q9NZN5 1-1544), the binding result in assay [1] is “binds”.

For “eYFP-PDZ-RhoGEF (from UniProt O15085 1-1522)”, the binding result with Gα12-CFP is on record as “binds”; in assay [1], “binds”; in assay [2], “binds”; in the assay with Gαi-mTurq2 (rat), “no binding”; with Gα13(135)R128A it was “binds”.

B1: eYFP-human LARG (leukemia-associated RhoGEF) (natural protein, UniProt Q9NZN5 1-1544, looked up)
chain: MSGTQSTITDRFPLKKPIRHGSILNRESPTDKKQKVERIASHDFDPTDSSSKKTKSSSEESRSEIYGLVQRCVIIQKDDNGFGLTVSGDNPVFVQSVKEDGAAMRAGVQTGDRIIKVNGTLVTHSNHLEVVKLIKSGSYVALTVQGRPPGSPQIPLADSEVEPSVIGHMSPIMTSPHSPGASGNMERITSPVLMGEENNVVHNQKVEILRKMLQKEQERLQLLQEDYNRTPAQRLLKEIQEAKKHIPQLQEQLSKATGSAQDGAVVTPSRPLGDTLTVSEAETDPGDVLGRTDCSSGDASRPSSDNADSPKSGPKERIYLEENPEKSETIQDTDTQSLVGSPSTRIAPHIIGAEDDDFGTEHEQINGQCSCFQSIELLKSRPAHLAVFLHHVVSQFDPATLLCYLYSDLYKHTNSKETRRIFLEFHQFFLDRSAHLKVSVPDEMSADLEKRRPELIPEDLHRHYIQTMQERVHPEVQRHLEDFRQKRSMGLTLAESELTKLDAERDKDRLTLEKERTCAEQIVAKIEEVLMTAQAVEEDKSSTMQYVILMYMKHLGVKVKEPRNLEHKRGRIGFLPKIKQSMKKDKEGEEKGKRRGFPSILGPPRRPSRHDNSAIGRAMELQKARHPKHLSTPSSVSPEPQDSAKLRQSGLANEGTDAGYLPANSMSSVASGASFSQEGGKENDTGSKQVGETSAPGDTLDGTPRTLNTVFDFPPPPLDQVQEEECEVERVTEHGTPKPFRKFDSVAFGESQSEDEQFENDLETDPPNWQQLVSREVLLGLKPCEIKRQEVINELFYTERAHVRTLKVLDQVFYQRVSREGILSPSELRKIFSNLEDILQLHIGLNEQMKAVRKRNETSVIDQIGEDLLTWFSGPGEEKLKHAAATFCSNQPFALEMIKSRQKKDSRFQTFVQDAESNPLCRRLQLKDIIPTQMQRLTKYPLLLDNIAKYTEWPTEREKVKKAADHCRQILNYVNQAVKEAENKQRLEDYQRRLDTSSLKLSEYPNVEELRNLDLTKRKMIHEGPLVWKVNRDKTIDLYTLLLEDILVLLQKQDDRLVLRCHSKILASTADSKHTFSPVIKLSTVLVRQVATDNKALFVISMSDNGAQIYELVAQTVSEKTVWQDLICRMAASVKEQSTKPIPLPQSTPGEGDNDEEDPSKLKEEQHGISVTGLQSPDRDLGLESTLISSKPQSHSLSTSGKSEVRDLFVAERQFAKEQHTDGTLKEVGEDYQIAIPDSHLPVSEERWALDALRNLGLLKQLLVQQLGLTEKSVQEDWQHFPRYRTASQGPQTDSVIQNSENIKAYHSGEGHMPFRTGTGDIATCYSPRTSTESFAPRDSVGLAPQDSQASNILVMDHMIMTPEMPTMEPEGGLDDSGEHFFDAREAHSDENPSEGDGAVNKEEKDVNLRISGNYLILDGYDPVQESSTDEEVASSLTLQPMTGIPAVESTHQQQHSPQNTHSDGAISPFTPEFLVQQRWGAMEYSCFEIQSPSSCADSQSQIMEYIHKIEADLEHLKKVEESYTILCQRLAGSALTDKHSDKS
notes: LARG (leukemia-associated RhoGEF), human; also called YFP-LARG; wt-LARG; source: HEK293T, transfected, in intact cells; not shown: YFP, N-terminal, kept
Regarding B1, the binding entry with Gα12-CFP was “binds”; with Gαi-mTurq2 (rat) it was “no binding”.

These data come from PMC9700851, “Interaction kinetics between p115-RhoGEF and Gα13 are determined by unique molecular interactions affecting agonist sensitivity” (Communications Biology, 2022).
